Molecular target: DYRK1B (GST tagged full length human DYRK1B isoform p65) (Homo sapiens (Human), UniProt Q9Y463)
Assay: DYRK1B ELISA assay
Assay type: biochemical
Details: 70 ng GST-DYRK1B, kinase reaction time 60 min
Experimental: DYRK1A assay. […] After blocking, wells were washed extensively with dilution buffer before subjecting to phosphorylation. […] At the end point, wells were washed with ˜350 μl dilution buffer three times to terminate the reaction. […] Each point was run in quadruplicate with DMSO present in all assays at 0.2% final concentration. […] HT-PRD phosphorylation was subsequently determined by the sandwich antibody staining protocol, first with 100 μl mouse mAb 3D3 specific for detecting DYRK1A-phosphorylated PRD (60 min at room temperature) then with 100 μl alkaline phosphatase (AP)-linked anti-mouse secondary antibody (60 min at room temperature), followed by colorimetric reaction with 100 μl PNPP solution (PNPP substrate tablet, Thermo Fisher). […] The readings were then recorded for subsequent IC50 calculation. The DYRK1A assay protocol can also support DYRK1B and DYRK2 phosphorylation reactions in the enzyme concentration-dependent manner; therefore, the method was adapted for measuring the activity of candidate compounds against DYRK1B and DYRK2. […]
Data transformation, calculation, plotting, curve fitting, and IC 50 calculation were performed in KaleidaGraph (http://www.synergy.com/wordpress_650164087; Mac version 4.1). Data was corrected for background (readings from wells with only PNPP) before subsequent manipulations. […]

Protein sequences, listed by entry. Tags and fused reporters are not part of them. Chains listed by the source or under a name are the forms on record and can include a tag or linker.
UniProt Q9Y463, other isoform, or with tags, fused parts or gaps: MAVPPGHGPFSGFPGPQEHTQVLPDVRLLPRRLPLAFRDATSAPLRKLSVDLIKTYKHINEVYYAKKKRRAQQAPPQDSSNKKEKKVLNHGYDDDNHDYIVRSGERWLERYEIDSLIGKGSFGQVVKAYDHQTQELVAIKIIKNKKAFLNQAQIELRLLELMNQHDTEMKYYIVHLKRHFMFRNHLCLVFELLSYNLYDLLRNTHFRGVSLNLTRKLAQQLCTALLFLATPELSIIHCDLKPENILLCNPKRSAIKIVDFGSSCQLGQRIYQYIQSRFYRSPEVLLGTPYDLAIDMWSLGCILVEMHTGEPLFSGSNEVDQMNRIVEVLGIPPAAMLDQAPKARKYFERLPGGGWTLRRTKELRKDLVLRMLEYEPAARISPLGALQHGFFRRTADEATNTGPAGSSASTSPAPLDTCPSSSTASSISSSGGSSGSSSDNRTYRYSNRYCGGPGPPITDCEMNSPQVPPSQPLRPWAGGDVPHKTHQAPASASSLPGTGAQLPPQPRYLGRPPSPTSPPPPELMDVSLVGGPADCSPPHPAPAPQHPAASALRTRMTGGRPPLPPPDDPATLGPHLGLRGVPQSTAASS

Structure (SMILES) | IC50 [nM]
O=C(O[C@@H]1Cc2c(O)cc(O)cc2O[C@@H]1c1cc(O)c(O)c(O)c1)c1cc(O)c(O)c(O)c1 [Compound 3, (2R,3R)-5,7-dihydroxy-2-(3,4,5-trihydroxyphenyl)chroman-3-yl 3,4,5-trihydroxybenzoate, reference compound] | > 100
O=C(O[C@@H]1Cc2c(O)cc(O)cc2O[C@H]1c1cc(O)c(O)c(O)c1)c1cc(O)c(O)c(O)c1 [Compound 4, (2S,3R)-5,7-dihydroxy-2-(3,4,5-trihydroxyphenyl)chroman-3-yl 3,4,5-trihydroxybenzoate] | > 100
